# PMC3034180
# By UniProt entry, the sequences of proteins in these tests, tags left out. Residues count along the entry.
# UniProt Q99KR7, residues 30-206: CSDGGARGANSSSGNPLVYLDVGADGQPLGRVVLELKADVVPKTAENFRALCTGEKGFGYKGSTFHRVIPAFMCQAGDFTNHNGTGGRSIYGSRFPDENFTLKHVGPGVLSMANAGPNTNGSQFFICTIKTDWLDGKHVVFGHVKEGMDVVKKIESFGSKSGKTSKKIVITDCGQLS
# These are yes or no findings as the source states them, for the method shown. Binding seen in cells or lysates may run through a third protein. Tags and fused reporters may be left off the sequences shown.
# Target: FLAG-tagged mouse Cyclophilin D (CypD with a C-terminal Flag) (mouse) (UniProt Q99KR7)
# Assay: co-IP; HA-tagged SIRT3, SIRT4 or SIRT5 and FLAG-tagged CypD in transfected 293T cells; mitochondria lysed by sonication in low-stringency IP buffer (0.05% NP-40, 50 mM NaCl, 0.5 mM EDTA, 50 mM Tris-HCl pH 7.4, 10 mM nicotinamide, 1 uM trichostatin A); FLAG-tagged proteins immunoprecipitated with anti-FLAG M2-agarose
binder,measurement,value
"HA-tagged SIRT4 (enzyme, UniProt Q9Y6E7 29-314) IGLFVPASPPLDPEKVKELQRFITLSKRLLVMTGAGISTESGIPDYRSEKVGLYARTDRRPIQHGDFVRSAPIRQRYWARNFVGWPQFSSHQPNPAHWALSTWEKLGKLYWLVTQNVDALHTKAGSRRLTELHGCMDRVLCLDCGEQTPRGVLQERFQVLNPTWSAEAHGLAPDGDVFLSEEQVRSFQVPTCVQCGGHLKPDVVFFGDTVNPDKVDFVHKRVKEADSLLVVGSSLQVYSGYRFILTAWEKKLPIAILNIGPTRSDDLACLKLNSRCGELLPLIDPC",binding,no binding
